These are yes or no findings as the source states them, for the method shown. Some results given as binding are weak or reduced against the parent protein; the word gives no strength. For part of these data: Where a sequence is shown, tags or fusion partners need not be part of it.
B1: GFP-XPO7 (receptor, not shown: large carriers)
chain: GGGSGGGSGGGSMADHVQSLAQLENLCKQLYETTDTTTRLQAEKALVEFTNSPDCLSKCQLLLERGSSSYSQLLAATCLTKLVSRTNNPLPLEQRIDIRNYVLNYLATRPKLATFVTQALIQLYARITKLGWFDCQKDDYVFRNAITDVTRFLQDSVEYCIIGVTILSQLTNEINQADTTHPLTKHRKIASSFRDSSLFDIFTLSCNLLKQASGKNLNLNDESQHGLLMQLLKLTHNCLNFDFIGTSTDESSDDLCTVQIPTSWRSAFLDSSTLQLFFDLYHSIPPSFSPLVLSCLVQIASVRRSLFNNAERAKFLSHLVDGVKRILENPQSLSDPNNYHEFCRLLARLKSNYQLGELVKVENYPEVIRLIANFTVTSLQHWEFAPNSVHYLLSLWQRLAASVPYVKATEPHMLETYTPEVTKAYITSRLESVHIILRDGLEDPLEDTGLVQQQLDQLSTIGRCEYEKTCALLVQLFDQSAQSYQELLQSASASPMDIAVQEGRLTWLVYIIGAVIGGRVSFASTDEQDAMDGELVCRVLQLMNLTDSRLAQAGNEKLELAMLSFFEQFRKIYIGDQVQKSSKLYRRLSEVLGLNDETMVLSVFIGKIITNLKYWGRCEPITSKTLQLLNDLSIGYSSVRKLVKLSAVQFMLNNHTSEHFSFLGINNQSNLTDMRCRTTFYTALGRLLMVDLGEDEDQYEQFMLPLTAAFEAVAQMFSTNSFNEQEAKRTLVGLVRDLRGIAFAFNAKTSFMMLFEWIYPSYMPILQRAIELWYHDPACTTPVLKLMAELVHNRSQRLQFDVSSPNGILLFRETSKMITMYGNRILTLGEVPKDQVYALKLKGISICFSMLKAALSGSYVNFGVFRLYGDDALDNALQTFIKLLLSIPHSDLLDYPKLSQSYYSLLEVLTQDHMNFIASLEPHVIMYILSSISEGLTALDTMVCTGCCSCLDHIVTYLFKQLSRSTKKRTTPLNQESDRFLHIMQQHPEMIQQMLSTVLNIIIFEDCRNQWSMSRPLLGLILLNEKYFSDLRNSIVNSQPPEKQQAMHLCFENLMEGIERNLLTKNRDRFTQNLSAFRREVNDSMKNSTYGVNSNDMMS
B2: GFP-RANBP17 (receptor, not shown: large carriers)
chain: GGGSGGGSGGGSMALHFQSLAELEVLCTHLYIGTDLTQRIEAEKALLELIDSPECLSKCQLLLEQGTTSYAQLLAATCLSKLVSRVSPLPVEQRMDIRNYILNYVASQPKLAPFVIQALIQVIAKITKLGWFEVQKDQFVFREIIADVKKFLQGTVEHCIIGVIILSELTQEMNLVDYSRPSAKHRKIATSFRDTSLKDVLVLACSLLKEVFAKPLNLQDQCQQNLVMQVLKLVLNCLNFDFIGSSADESADDLCTVQIPTTWRTIFLEPETLDLFFNLYHSLPPLLSQLALSCLVQFASTRRSLFNSPERAKYLGNLIKGVKRILENPQGLSDPGNYHEFCRFLARLKTNYQLGELVMVKEYPEVIRLIANFTITSLQHWEFAPNSVHYLLTLWQRMVASVPFVKSTEPHLLDTYAPEITKAFITSRLDSVAIVVRDHLDDPLDDTATVFQQLEQLCTVSRCEYEKTCALLVQLFDQNAQNYQKLLHPYSGVTVDITIQEGRLAWLVYLVGTVVGGRLTYTSTDEHDAMDGELSCRVFQLISLMDTGLPRCCNEKIELAILWFLDQFRKTYVGDQLQRTSKVYARMSEVLGITDDNHVLETFMTKIVTNLKYWGRYEPVISRTLQFLNDLSVGYILLKKLVKIDAVKFMLKNHTSEHFPFLGISDNHSLSDFRCRTTFYTALTRLLMVDLGEDEDEFENFMLPLTVAFETVLQIFNNNFKQEDVKRMLIGLARDLRGIAFALNTKTSYTMLFDWMYPTYLPLLQNAVERWYGEPTCTTPILKLMAELMQNRSQRLNFDVSSPNGILLFREASKMVCTYGNQILSLGSLSKDQIYPMKLKGISICYSALKSALCGNYVSFGVFKLYGDNHFDNVLQAFVKMLLSVSHSDLLQYRKLSQSYYPLLECLTQDHMSFIINLEPPVLMYVLTSISEGLTTLDTVVSSSCCTSLDYIVTYLFKHIAKEGKKPLRCREATQAGQRLLHFMQQNPDVLQQMMSVLMNTIVFEDCRNQWSVSRPLLGLILLNEKYFSELRASLINSQPLPKQEVLAQCFRNLMEGVEQNLSVKNRDRFTQNLSVFRRDVAEALRSDGNTEPCSLDMMS
B3: mCherry-Nup85 (protein, UniProt Q9BW27 1-656, looked up, not shown: large carriers)
chain: MEELDGEPTVTLIPGVNSKKNQMYFDWGPGEMLVCETSFNKKEKSEMVPSCPFIYIIRKDVDVYSQILRKLFNESHGIFLGLQRIDEELTGKSRKSQLVRVSKNYRSVIRACMEEMHQVAIAAKDPANGRQFSSQVSILSAMELIWNLCEILFIEVAPAGPLLLHLLDWVRLHVCEVDSLSADVLGSENPSKHDSFWNLVTILVLQGRLDEARQMLSKEADASPASAGICRIMGDLMRTMPILSPGNTQTLTELELKWQHWHEECERYLQDSTFATSPHLESLLKIMLGDEAALLEQKELLSNWYHFLVTRLLYSNPTVKPIDLHYYAQSSLDLFLGGESSPEPLDNILLAAFEFDIHQVIKECSIALSNWWFVAHLTDLLDHCKLLQSHNLYFGSNMREFLLLEYASGLFAHPSLWQLGVDYFDYCPELGRVSLELHIERIPLNTEQKALKVLRICEQRQMTEQVRSICKILAMKAVRNNRLGSALSWSIRAKDAAFATLVSDRFLRDYCERGCFSDLDLIDNLGPAMMLSDRLTFLGKYREFHRMYGEKRFADAASLLLSLMTSRIAPRSFWMTLLTDALPLLEQKQVIFSAEQTYELMRCLEDLTSRRPVHGESDTEQLQDDDIETTKVEMLRLSLARNLARAIIREGSLEGS

Amino acid sequences for entries named in this document (tags omitted). A change or cut given only in a name is not applied to a line headed by its entry. Chains listed by the source or under a name are the forms on record and can include a tag or linker.
Nup62-mCherry (P37198, form named): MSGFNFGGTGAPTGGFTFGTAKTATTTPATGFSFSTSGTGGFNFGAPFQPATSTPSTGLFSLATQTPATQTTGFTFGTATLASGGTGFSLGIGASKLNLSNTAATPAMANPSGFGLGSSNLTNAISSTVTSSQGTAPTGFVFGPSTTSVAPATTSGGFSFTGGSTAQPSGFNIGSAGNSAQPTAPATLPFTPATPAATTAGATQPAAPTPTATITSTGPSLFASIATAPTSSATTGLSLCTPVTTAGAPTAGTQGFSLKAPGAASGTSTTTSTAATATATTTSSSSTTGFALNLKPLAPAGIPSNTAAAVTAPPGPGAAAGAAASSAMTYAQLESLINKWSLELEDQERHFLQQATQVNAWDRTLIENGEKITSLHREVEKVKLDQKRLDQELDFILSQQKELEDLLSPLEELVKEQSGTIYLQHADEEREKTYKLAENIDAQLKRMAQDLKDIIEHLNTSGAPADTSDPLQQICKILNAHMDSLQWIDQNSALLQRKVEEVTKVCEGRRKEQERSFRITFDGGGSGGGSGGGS
UniProt Q13148: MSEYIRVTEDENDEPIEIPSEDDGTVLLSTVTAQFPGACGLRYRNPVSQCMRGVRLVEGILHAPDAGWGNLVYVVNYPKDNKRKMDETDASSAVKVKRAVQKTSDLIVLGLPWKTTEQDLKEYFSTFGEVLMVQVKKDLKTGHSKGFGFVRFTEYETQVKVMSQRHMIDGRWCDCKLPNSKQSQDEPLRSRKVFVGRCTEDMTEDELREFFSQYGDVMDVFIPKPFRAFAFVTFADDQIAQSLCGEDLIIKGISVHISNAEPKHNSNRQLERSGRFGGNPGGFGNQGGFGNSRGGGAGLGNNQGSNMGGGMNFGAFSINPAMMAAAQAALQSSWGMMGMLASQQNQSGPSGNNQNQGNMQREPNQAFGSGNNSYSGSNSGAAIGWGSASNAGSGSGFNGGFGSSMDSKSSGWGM

Assays:
Nup62-mCherry [1] = biological target: Nup62-mCherry (UniProt P37198); test: co-localisation by immunofluorescence in HEK293T cells (not a direct binding assay)
Nup62-mCherry [2] = biological target: Nup62-mCherry (UniProt P37198); test: co-localisation by immunofluorescence in HEK293T cells (FIG. 22G; not a direct binding assay)
GFP-TDP-CTF (human) [3] = biological target: GFP-TDP-CTF (human) (UniProt Q13148); test: co-localisation by immunofluorescence in HEK293T cells (not a direct binding assay)
GFP-TDP-CTF (human) [4] = biological target: GFP-TDP-CTF (human) (UniProt Q13148); test: co-localisation by immunofluorescence in HEK293T cells (FIG. 22E; not a direct binding assay)

Binder | binding (Nup62-mCherry [1]) | binding (Nup62-mCherry [2]) | binding (GFP-TDP-CTF (human) [3]) | binding (GFP-TDP-CTF (human) [4])
B1 | binds | binds |  | 
B2 | binds | binds |  | 
B3 |  |  | binds | binds

From patent US20240226230A1
